Some of the results follow. Values are worked out from sequencing counts and are noisy.
T1: Homer1 EVH1 domain
T1 chain: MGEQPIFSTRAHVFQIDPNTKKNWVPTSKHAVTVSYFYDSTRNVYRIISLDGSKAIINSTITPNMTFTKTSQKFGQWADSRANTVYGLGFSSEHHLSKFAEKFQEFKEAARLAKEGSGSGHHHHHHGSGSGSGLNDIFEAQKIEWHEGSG


Biological target: T1, Homer1 EVH1 domain
Experiment: enrichment score (AUC of log2 frequency ratio across FACS sorting rounds) (log2 AUC); higher = stronger enrichment for Homer1 EVH1 binding
GVEQLEDYLNFANYLLWVFTPLILLILPYFTIFLLY was tested, and the enrichment score was 1.91.
QAPSASHSSSLRPSQRRPRRPPTVFRLLEGRGPQTP was tested, and the enrichment score was -1.29.
SGLCRSVLTALLSGGLALLGALIWLCHFWCCSERWS showed an enrichment score of 2.47.
For MAKAFSTLASHIAVVILFFGPCIFIYVWPFTISPLD, the enrichment score was -2.68.
PPLSSSPGGTSPSPPPRTPAIPFAPYGLHHTSLLKP showed an enrichment score of 0.135.
TGVQLLAVSHVGIKLLRYGQGWPGGRRAAAGPACIQ showed an enrichment score of 3.52.
HYSDPFILFLFLLAFSTATIMLCFLLSTFFSKASLA gave an enrichment score of 0.63.
MTHKSLVYLWFLCSSVALALGALTVWHAVLISRSET was tested, and the enrichment score was 4.7.
Work on GYTSLGIFLLGFLFWNIDNIFCESLRNFRKKVPPII yielded an enrichment score of -0.695.
For MRKSPGLSDCLWAWILLLSTLTGRSYGQPSLQDELK, the enrichment score was 0.0916.
With FRGPDWLCRVVKHLQVFGMFASAYMLVVMTADRYIA the enrichment score was 2.49.
Binder TYLCCILMLLTPIMVISSSYTLILHLIHRMNSAAGR has an enrichment score of 4.53.
MPWILMLLLTMGQGVVILALSIVLWRQRVRGAPGRD showed an enrichment score of 3.49.
QLNELLLFAVGFIMAGTPLVLIITAYSHVAAAVLRI gave an enrichment score of 2.13.
LNWIQWASLLTLFLSIVALTAGTKTLQHNLAGRGFH gave an enrichment score of 1.21.
For SNPYQTFLGPTGVYTWNGLGASFVFVTMILFVANTQ, the enrichment score was 1.9.
Binder VMAYDRFVAVCHPLHYMIIMNPHLCGLLVFVTWLIG has an enrichment score of 2.71.
In the case of QWWHQAFYNFFTFSCLFIIPLFIMLICNAKIIFTLT, the enrichment score is reported as 4.47.
GEPPPPAAPALMITPIINWGMALCLVLALHGPRTLH gave an enrichment score of 1.58.
MTLLPGLLFLTWLHTCLAHHDPSLRGHPHSHGTPHC was tested, and the enrichment score was 0.36.
SFGEIASGFWQATAIFLAVGIFILCMVALVSVFTMC gave an enrichment score of -0.234.
Binder PGYYLYSQGLLTLNTVCLMSGIAGFALTMLCWMSYY has an enrichment score of 3.78.
LVHGDVPENQLKWTVFVRALINDSLFILCAISLVCY was tested, and the enrichment score was 3.03.
TSLWVRNIQMYLSGIIVTLAGVYLSDGAEIKEKGFF gave an enrichment score of -0.117.
LQEQLKKNKGFRRFVRLQEGRPGFGGLQLQDLLPLP was tested, and the enrichment score was 1.33.
Binder SYVGLVLVLLRGLPGSGKSFLARTLQEDNPSGVILS has an enrichment score of 2.17.
In the case of IFKAFSMLSAHVIVVVLVFGPLIFFYIFPFPTSHLD, the enrichment score is reported as 0.113.
Work on KNGFFQGYNRLTWIVVVLQALGGLVIAAVIKYADNI yielded an enrichment score of 0.477.
SPSPLQQIPMRSSAAEAWPGCHRRSFTKKVSRPEPL was tested, and the enrichment score was 0.731.
For IGSVLGALIGVAGSTYVNRVRLQELKALLLEAQKGP, the enrichment score was 0.27.
In the case of SSTTKLYLAKQVFVGFLLILAAIELPLVLTEDSGPA, the enrichment score is reported as 0.755.
In the case of RFRRSLLLLVKHSCVESLFLVRNFCILYYFLGYIPK, the enrichment score is reported as -5.02.
PRAAVHNGFWFFKFAAAIAIIIGAFFIPEGTFTTVW was tested, and the enrichment score was 0.3.
For LLYPVIMTNELCIQLLVLSFIGGLLHALIHEAFSFR, the enrichment score was 2.84.
In the case of GNIDQVAVVAINVLFFVTLFIFALFETIITPLTMDM, the enrichment score is reported as 3.65.
With ETLQRSWETKVGTLVRRESSGESLFIALLLTQALIC the enrichment score was 0.82.
MWLPWALLLLWVPGCFALSKCRTVAGPVGGSLSVQC showed an enrichment score of 0.0316.
PPAEDREEAGSPTLPQGPPVPGDPWPGAPPLFEDPP showed an enrichment score of 0.966.
Work on PAVRLNSTGAPASLGAGGGASSVPLSVLILNLLLVF yielded an enrichment score of 1.14.
EMLDIFVHQLLVLVVFLTGLVAFLEFLVRNNVLLEL gave an enrichment score of 0.94.
VYPWWGEAMGWAFALSSMLCVPLHLLGCLLRAKGTI showed an enrichment score of 2.96.
With YQHHFIQHFLRKHYNEWITNIYVKPFVVILYLIYAS the enrichment score was 1.14.
In the case of MQQNNSVTEFILLGLTQDPLRQKIVFVIFLVFYMGT, the enrichment score is reported as 1.39.
For DRSLINLHLMHTSYFLFVMVITMFCYAVINGRPSKL, the enrichment score was 4.59.

From the supplement of paper PMC11237882
